Measurements from “University of Dundee, Small-Polar-MMV Screening Library” (2021), ChEMBL document CHEMBL3988442.

Protein sequences, listed by entry. Tags and fused reporters are not part of them. Residues count along the entry.
UniProt P9WFT3, whole entry: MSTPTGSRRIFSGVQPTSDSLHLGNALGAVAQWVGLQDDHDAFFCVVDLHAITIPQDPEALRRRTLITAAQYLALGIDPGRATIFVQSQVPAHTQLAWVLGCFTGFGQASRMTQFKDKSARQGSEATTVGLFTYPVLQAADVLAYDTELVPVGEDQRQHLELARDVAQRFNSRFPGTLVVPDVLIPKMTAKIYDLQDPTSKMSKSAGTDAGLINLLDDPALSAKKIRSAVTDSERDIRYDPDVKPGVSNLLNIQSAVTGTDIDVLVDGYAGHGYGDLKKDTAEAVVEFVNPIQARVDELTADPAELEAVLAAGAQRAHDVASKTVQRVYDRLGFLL
UniProt Q4DA54, 1-478: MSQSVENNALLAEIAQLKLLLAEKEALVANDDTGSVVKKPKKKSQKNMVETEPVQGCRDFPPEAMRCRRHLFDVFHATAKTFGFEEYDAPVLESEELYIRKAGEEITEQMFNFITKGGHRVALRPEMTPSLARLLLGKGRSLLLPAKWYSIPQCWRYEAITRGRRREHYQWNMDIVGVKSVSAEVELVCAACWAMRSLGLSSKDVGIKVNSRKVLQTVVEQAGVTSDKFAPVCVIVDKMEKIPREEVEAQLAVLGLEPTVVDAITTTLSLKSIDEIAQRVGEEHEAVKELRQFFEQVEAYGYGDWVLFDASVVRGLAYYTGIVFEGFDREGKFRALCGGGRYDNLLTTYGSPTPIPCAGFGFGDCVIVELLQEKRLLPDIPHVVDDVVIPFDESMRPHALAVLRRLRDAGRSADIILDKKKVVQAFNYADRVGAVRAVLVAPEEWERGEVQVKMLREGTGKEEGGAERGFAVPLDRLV
UniProt Q8IDJ8, 1-583: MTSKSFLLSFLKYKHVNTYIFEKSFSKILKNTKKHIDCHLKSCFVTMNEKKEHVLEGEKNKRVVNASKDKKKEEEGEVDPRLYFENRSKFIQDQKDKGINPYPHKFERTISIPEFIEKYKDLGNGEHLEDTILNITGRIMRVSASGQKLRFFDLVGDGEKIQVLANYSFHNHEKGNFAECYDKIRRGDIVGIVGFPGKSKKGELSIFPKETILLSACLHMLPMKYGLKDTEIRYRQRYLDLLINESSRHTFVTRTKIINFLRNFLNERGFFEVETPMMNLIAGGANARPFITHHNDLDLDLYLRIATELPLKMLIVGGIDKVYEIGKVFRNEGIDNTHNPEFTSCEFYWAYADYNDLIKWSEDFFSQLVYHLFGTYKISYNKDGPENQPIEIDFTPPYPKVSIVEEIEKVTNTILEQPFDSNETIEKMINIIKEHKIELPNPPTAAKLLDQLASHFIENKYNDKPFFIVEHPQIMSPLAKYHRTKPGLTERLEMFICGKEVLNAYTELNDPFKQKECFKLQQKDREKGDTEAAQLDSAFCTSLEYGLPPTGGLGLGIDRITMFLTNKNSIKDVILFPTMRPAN
UniProt P9WNZ1, whole entry: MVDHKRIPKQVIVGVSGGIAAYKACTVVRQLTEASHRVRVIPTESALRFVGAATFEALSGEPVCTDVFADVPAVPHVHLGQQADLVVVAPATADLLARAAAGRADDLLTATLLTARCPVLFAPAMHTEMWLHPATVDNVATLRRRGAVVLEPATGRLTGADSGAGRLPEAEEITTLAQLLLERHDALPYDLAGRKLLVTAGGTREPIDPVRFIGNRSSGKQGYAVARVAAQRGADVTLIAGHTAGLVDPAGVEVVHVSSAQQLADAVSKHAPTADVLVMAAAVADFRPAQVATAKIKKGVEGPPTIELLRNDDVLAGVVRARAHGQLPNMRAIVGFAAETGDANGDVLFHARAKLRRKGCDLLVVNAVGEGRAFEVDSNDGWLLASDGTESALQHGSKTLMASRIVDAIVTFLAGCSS
UniProt I6X8D2, whole entry: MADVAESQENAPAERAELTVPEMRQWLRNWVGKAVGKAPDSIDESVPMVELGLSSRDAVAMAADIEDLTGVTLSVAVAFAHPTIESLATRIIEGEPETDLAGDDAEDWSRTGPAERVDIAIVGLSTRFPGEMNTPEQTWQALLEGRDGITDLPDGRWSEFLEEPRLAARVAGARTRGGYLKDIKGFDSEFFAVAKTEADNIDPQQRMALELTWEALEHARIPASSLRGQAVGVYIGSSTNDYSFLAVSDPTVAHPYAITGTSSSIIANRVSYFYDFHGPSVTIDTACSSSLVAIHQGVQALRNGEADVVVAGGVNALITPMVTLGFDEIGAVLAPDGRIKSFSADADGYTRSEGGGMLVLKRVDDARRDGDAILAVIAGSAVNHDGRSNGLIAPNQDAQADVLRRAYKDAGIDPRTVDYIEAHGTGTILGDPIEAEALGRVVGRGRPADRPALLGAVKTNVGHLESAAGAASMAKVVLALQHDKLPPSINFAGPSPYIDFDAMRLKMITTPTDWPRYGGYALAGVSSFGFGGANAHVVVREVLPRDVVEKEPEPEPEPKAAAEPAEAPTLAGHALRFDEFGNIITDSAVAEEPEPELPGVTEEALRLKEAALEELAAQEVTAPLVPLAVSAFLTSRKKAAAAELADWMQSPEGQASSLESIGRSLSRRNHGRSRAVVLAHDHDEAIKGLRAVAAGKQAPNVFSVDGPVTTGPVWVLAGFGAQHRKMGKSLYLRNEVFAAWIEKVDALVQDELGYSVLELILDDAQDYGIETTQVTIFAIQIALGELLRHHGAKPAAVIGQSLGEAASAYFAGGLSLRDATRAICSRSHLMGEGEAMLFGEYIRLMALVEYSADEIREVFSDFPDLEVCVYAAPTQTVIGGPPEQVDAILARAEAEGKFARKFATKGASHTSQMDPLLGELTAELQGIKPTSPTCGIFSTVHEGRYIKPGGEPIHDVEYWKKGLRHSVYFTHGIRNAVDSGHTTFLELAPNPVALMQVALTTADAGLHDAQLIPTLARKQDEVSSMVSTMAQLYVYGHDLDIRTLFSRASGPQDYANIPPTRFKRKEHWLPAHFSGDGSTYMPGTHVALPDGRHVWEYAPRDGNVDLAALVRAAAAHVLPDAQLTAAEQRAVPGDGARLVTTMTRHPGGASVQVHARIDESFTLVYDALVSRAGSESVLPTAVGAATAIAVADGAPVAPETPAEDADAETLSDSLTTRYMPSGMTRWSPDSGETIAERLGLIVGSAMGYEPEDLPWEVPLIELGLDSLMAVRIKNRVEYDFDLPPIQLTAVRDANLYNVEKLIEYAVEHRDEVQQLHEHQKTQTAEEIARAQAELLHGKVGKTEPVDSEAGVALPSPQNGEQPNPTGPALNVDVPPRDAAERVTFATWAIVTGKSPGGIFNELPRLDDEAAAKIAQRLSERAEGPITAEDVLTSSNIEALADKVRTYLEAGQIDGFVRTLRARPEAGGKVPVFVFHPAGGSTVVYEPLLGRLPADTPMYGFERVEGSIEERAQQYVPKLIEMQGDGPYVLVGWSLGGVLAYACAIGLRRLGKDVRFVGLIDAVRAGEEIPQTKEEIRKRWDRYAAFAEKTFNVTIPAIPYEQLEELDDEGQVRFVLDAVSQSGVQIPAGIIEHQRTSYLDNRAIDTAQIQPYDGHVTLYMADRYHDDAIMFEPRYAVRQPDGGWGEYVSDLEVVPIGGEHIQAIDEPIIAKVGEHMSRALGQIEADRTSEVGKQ

MtTrpRS: 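Tryptophan-tRNA ligase, Mycobacterium tuberculosis (UniProt P9WFT3). Enzyme assay of tryptophanyl-tRNA synthetase; the read-out is not stated. Tested at 10 µM. Direction is not recorded; retested compounds ran higher, which suggests that high means inhibition. Size under these conditions: about 65,000 compounds, about 64 of them at 50% or above in at least one test.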
TcHisRS: 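Histidine-tRNA ligase, Trypanosoma cruzi CL Brener (UniProt Q4DA54). Enzyme assay of histidyl-tRNA synthetase; the read-out is not stated. Tested at 30 µM. Direction is inferred from retests: higher values go with stronger inhibition. Size under these conditions: about 69,000 compounds, about 31 of them at 50% or above in at least one test.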
PfKRS1: 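Lysine-tRNA ligase, Plasmodium falciparum 3D7 (UniProt Q8IDJ8). Enzyme assay of the cytosolic lysyl-tRNA synthetase in 384-well plates, read by luminescence. Compounds at 30 µM. Higher reads as stronger inhibition, judged from the few compounds that gave an IC50. About 69,000 compounds were tested under these conditions; 0.071% (about 49) showed 50% or more at least once.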
CoaBC: 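Enzyme assay of CoaBC with a phosphate dye (Biomol Green) read at 650 nm. Target: Coenzyme A biosynthesis protein CoaBC, Mycobacterium tuberculosis (UniProt P9WNZ1). Compounds at 30 µM. Direction is inferred from only a few compounds that gave an IC50; most scored high, so higher reads as stronger inhibition. Most strong results did not repeat in a second test. Of about 67,000 compounds tested this way, about 40 (0.06%) reached 50% or more in at least one test.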
Pks13 thioesterase: 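Polyketide synthase Pks13, Mycobacterium tuberculosis (UniProt I6X8D2). Enzyme assay of the thioesterase domain of polyketide synthase 13; the read-out is not stated. Tested at 30 µM. Higher reads as stronger inhibition (inferred from which compounds were picked for retests). Of about 67,000 compounds tested this way, about 300 (0.46%) reached 50% or more in at least one test.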
Leishmania in macrophages: 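Cell assay of Leishmania donovani living inside macrophages; the read-out is not stated. Compounds at 30 µM. Direction is inferred from retests: higher values go with stronger inhibition. About 69,000 compounds were tested under these conditions; 1.5% (about 1,000) showed 50% or more at least once.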

Each number is a percent effect as filed. The controls that fix the scale are not given in the record; negative values are as filed. This is an unselected part of the compounds tested.

* O=S(=O)(Cc1ccccc1)NCc1ccnc(O)c1 : MtTrpRS: -1.332%; TcHisRS: 2.521%; PfKRS1: 4.658%; CoaBC: 7.661%; Pks13 thioesterase: -11.65%; Leishmania in macrophages: 13.64%
* Cc1ccc(CN2CCC3(CCCC(=O)N3)CC2)s1 : MtTrpRS: -2.183%; TcHisRS: 1.942%; PfKRS1: 0.7113%; CoaBC: 5.089%; Pks13 thioesterase: -26.13%
* Cc1ccc(CNC2CC3(CCN(CCO)CC3)c3ccccc32)s1.O=C(O)C(F)(F)F.O=C(O)C(F)(F)F (centres unmarked) : Leishmania in macrophages: 81.48%
* COc1ccnc(N2CCN(C(=O)COCC(F)(F)F)CC2)n1 : MtTrpRS: 10.09%; TcHisRS: 1.765%; PfKRS1: -0.8939%; CoaBC: -0.2558%; Pks13 thioesterase: -25.1%; Leishmania in macrophages: -8.448%
* Cc1cc(C)c(C(=O)N(CCO)Cc2ccccc2F)c(=O)[nH]1 : MtTrpRS: -1.147%; TcHisRS: -1.657%; PfKRS1: 3.928%; CoaBC: 8.238%; Pks13 thioesterase: -21.33%; Leishmania in macrophages: 8.553%
* O=C(CC1CC1)N1CCC2(CC1)CN(c1ncccn1)CCO2 : MtTrpRS: 1.057%; TcHisRS: -3.825%; PfKRS1: 1.442%; CoaBC: 6.995%; Pks13 thioesterase: -18.92%; Leishmania in macrophages: 2.315%
* CN(CCc1ccccc1)Cc1cc(C(=O)N2CCN(C)C(=O)C2)no1 : MtTrpRS: 1.069%; TcHisRS: 0%; PfKRS1: 3.51%; CoaBC: 4.516%; Leishmania in macrophages: 21.2%
* CS(=O)(=O)N1CC2(CCN(CC3CCCCC3)CC2)Cc2ccccc21 : MtTrpRS: 1.469%; TcHisRS: 8.876%; PfKRS1: -1.681%; CoaBC: 2.632%; Pks13 thioesterase: -26.58%; Leishmania in macrophages: 1.206%
* NC(=O)c1c(NC(=O)CCCC(=O)O)sc2c1CCc1ccccc1-2 : MtTrpRS: 2.467%; TcHisRS: 3%; PfKRS1: 0.6658%; CoaBC: 0.2421%; Pks13 thioesterase: 7.556%; Leishmania in macrophages: 1.673%
* [H][C@@]12CCCC[C@]1(O)CCN(C(=O)c1cc3ccccc3n1C)C2 : Leishmania in macrophages: 24.81%
* N#Cc1c(N)nc2c(c1-c1c[nH]nc1C1CCCCC1)CC(N)CC2 (centres unmarked) : MtTrpRS: -1.497%; TcHisRS: 11.61%; PfKRS1: 3.115%; CoaBC: 7.925%; Pks13 thioesterase: -5.178%; Leishmania in macrophages: 10.05%
* CC(C)CN1CCC2(CC1)CN(C(=O)C(C)C)C2.O=C(O)C(F)(F)F : Leishmania in macrophages: 5.321%
* NC(=O)c1ccc(NC2CCOC3(CCCC3)C2)nn1 (centres unmarked) : MtTrpRS: 4.806%; TcHisRS: 0.5525%; PfKRS1: -2.974%; CoaBC: -2.93%; Pks13 thioesterase: 0.7027%; Leishmania in macrophages: 2.958%
* CN(Cc1ccc(C2CC(=O)Nc3n[nH]cc32)o1)S(C)(=O)=O (centres unmarked) : MtTrpRS: 6.985%; TcHisRS: 4.046%; PfKRS1: 4.492%; CoaBC: 8.264%; Pks13 thioesterase: -11.89%; Leishmania in macrophages: -13.83%
* CNc1snc(C)c1C(=O)N1CCCC(n2nc(C)nc2C)C1 (centres unmarked) : MtTrpRS: -8.284%; TcHisRS: 2.825%; PfKRS1: -0.8384%; CoaBC: 1.828%; Pks13 thioesterase: -10.94%; Leishmania in macrophages: -7.655%

Some entries from above, unchanged:

NC(=O)c1ccc(NC2CCOC3(CCCC3)C2)nn1 (centres unmarked) read MtTrpRS: 4.806%; TcHisRS: 0.5525%; PfKRS1: -2.974%; CoaBC: -2.93%; Pks13 thioesterase: 0.7027%; Leishmania in macrophages: 2.958%.
Cc1cc(C)c(C(=O)N(CCO)Cc2ccccc2F)c(=O)[nH]1 read MtTrpRS: -1.147%; TcHisRS: -1.657%; PfKRS1: 3.928%; CoaBC: 8.238%; Pks13 thioesterase: -21.33%; Leishmania in macrophages: 8.553%.